According to PubChem BioAssay (EPA / NIEHS):
The shares of active, inactive and inconclusive entries below differ from those in the screen. A potency beside an inconclusive call is a rough fit, not a confirmed value. The source made the active and inactive calls. The calls were made as follows: active = hit-call score of the fitted dose curve at least 0.9, where 1 is the maximum; inconclusive = response in the unintended direction; inactive = score below 0.9.

Experiment: TOX21_p53_BLA_p5_viability: Viability Assessment in the Tox21 HCT-116 p53 Agonism Beta-lactamase Assay, Phase 5 (AID 2283600)
Outline: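 Compounds, pinned from DMSO at 217-fold dilution, were left on the cells for 16 h. The viability endpoint was ATP content measured by CellTiter-Glo luminescence, where falling signal reflects cytotoxicity.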

Row | Structure (SMILES) | AC50 | outcome
1 | CC(CN(C)C)CN1c2ccccc2S(=O)(=O)c2ccccc21 (stereo unspecified) | inconclusive: 9.2 µM | 
2 | O=[N+]([O-])c1cc(Cl)c(Cl)c(Cl)c1Cl | inconclusive: 86.4 µM | 
3 | O=S(=O)(O)CO | inconclusive: 45.6 µM | 
4 | CCCCCCCCCCCCCCCC(=O)O[C@@H]1CC(C)=C(/C=C/C(C)=C/C=C/C(C)=C/C=C/C=C(C)/C=C/C=C(C)/C=C/C2=C(C)C[C@@H](OC(=O)CCCCCCCCCCCCCCC)CC2(C)C)C(C)(C)C1 | inconclusive: 23 µM | 
5 | NCCN1CCNC1=O |  | inactive
6 | CC(CNC(=O)c1cccnc1)NC(=O)c1cccnc1 (stereo unspecified) | inconclusive: 23 µM | 
7 | OCCCCCCCl | inconclusive: 47.6 µM | 
8 | CN(C)CCCOc1nn(Cc2ccccc2)c2ccccc12 | inconclusive: 10.3 µM | 
9 | Cc1ccc(C(=O)c2ccc(CC(=O)O)n2C)cc1 | inconclusive: 10.3 µM | 
10 | NS(=O)(=O)c1ccccc1Cl |  | inactive
11 | OCCOCC#CCOCCO |  | inactive
12 | CC(C)(C)C(=O)OCOP(=O)(COCCn1cnc2c(N)ncnc21)OCOC(=O)C(C)(C)C | inconclusive: 3.35 µM | 
13 | NC(=O)C1(N2CCCCC2)CCN(CCCC(=O)c2ccc(F)cc2)CC1 | inconclusive: 23 µM | 
14 | CC(C)NNC(=O)c1ccncc1 |  | inactive
15 | COc1ccccc1N1CCN(CCCNc2cc(=O)n(C)c(=O)n2C)CC1 | inconclusive: 23 µM | 
16 | CC(CCc1ccc(O)cc1)NCC(O)c1ccc(O)cc1 (stereo unspecified) | inconclusive: 0.804 µM | 
17 | CN1CCN2c3ncccc3Cc3ccccc3C2C1 (stereo unspecified) | inconclusive: 7.73 µM | 
18 | FC(F)(F)c1ccccc1Cl | inconclusive: 47.1 µM | 

From no. 2 as far as 11, as listed above:
Row | Structure (SMILES) | AC50 | outcome
2 | O=[N+]([O-])c1cc(Cl)c(Cl)c(Cl)c1Cl | inconclusive: 86.4 µM | 
3 | O=S(=O)(O)CO | inconclusive: 45.6 µM | 
4 | CCCCCCCCCCCCCCCC(=O)O[C@@H]1CC(C)=C(/C=C/C(C)=C/C=C/C(C)=C/C=C/C=C(C)/C=C/C=C(C)/C=C/C2=C(C)C[C@@H](OC(=O)CCCCCCCCCCCCCCC)CC2(C)C)C(C)(C)C1 | inconclusive: 23 µM | 
5 | NCCN1CCNC1=O |  | inactive
6 | CC(CNC(=O)c1cccnc1)NC(=O)c1cccnc1 (stereo unspecified) | inconclusive: 23 µM | 
7 | OCCCCCCCl | inconclusive: 47.6 µM | 
8 | CN(C)CCCOc1nn(Cc2ccccc2)c2ccccc12 | inconclusive: 10.3 µM | 
9 | Cc1ccc(C(=O)c2ccc(CC(=O)O)n2C)cc1 | inconclusive: 10.3 µM | 
10 | NS(=O)(=O)c1ccccc1Cl |  | inactive
11 | OCCOCC#CCOCCO |  | inactive

(more compounds)

Row | Structure (SMILES) | AC50 | outcome
19 | CCN1CCCC(OC(=O)C(c2ccccc2)c2ccccc2)C1 (stereo unspecified) | inconclusive: 10.3 µM | 
20 | COc1ccc2[nH]c(S(=O)Cc3ncc(C)c(OC)c3C)nc2n1 (stereo unspecified) | inconclusive: 23 µM | 
21 | CC(=O)OCC(C)C | inconclusive: 45.2 µM | 
22 | CC(C)CCCC(=O)O | inconclusive: 46.1 µM | 
23 | Oc1ccc(C2(c3ccc(O)cc3)CC3CC2C2CCCC32)cc1 (stereo unspecified) | inconclusive: 44.6 µM | 
24 | CC(CCc1ccccc1)NCC(O)c1ccc(O)c(C(N)=O)c1 (stereo unspecified) | inconclusive: 7.55 µM | 
25 | CN(C)CCN1C(=O)c2ccccc2N(C)c2ccccc21 | inconclusive: 4.57 µM | 
26 | Brc1ccc(-c2ccccc2)cc1 | inconclusive: 46 µM | 
27 | [Cl-].[Cl-].[NH-]CC[NH-].[Pt+4] | inconclusive: 2.33 µM | 
28 | Cc1ccc(/C(=C\CN2CCCC2)c2ccccn2)cc1 | inconclusive: 1.02 µM | inactive
29 | CCOC(=O)CCC(=O)O[C@H]1[C@H](O[C@@H]2[C@@H](C)[C@H](O[C@H]3C[C@@](C)(OC)[C@@H](O)[C@H](C)O3)[C@@H](C)C(=O)O[C@H](CC)[C@@](C)(O)[C@H](O)[C@@H](C)C(=O)[C@H](C)C[C@@]2(C)O)O[C@H](C)C[C@@H]1N(C)C | inconclusive: 23 µM | 
30 | Cc1ccc(Cl)cc1Cl | inconclusive: 46.1 µM | 
31 | CN=C(NC#N)Nc1ccc(C2=NNC(=O)CC2C)cc1 (stereo unspecified) | inconclusive: 23 µM | 
32 | CCCCC1=NC2(CCCC2)C(=O)N1Cc1ccc(-c2ccccc2-c2nn[nH]n2)cc1 | inconclusive: 5.32 µM | 
33 | O=S1(=O)c2cccc3cccc(c23)N1CCCN1CCN(c2ccc(F)cc2)CC1 |  | inactive
34 | COC(=O)Nc1nc2ccc(C(=O)c3ccccc3)cc2[nH]1 | inconclusive: 0.344 µM | 
35 | CC[C@@]1(O)C[C@@H]2CN(CCc3c([nH]c4ccccc34)[C@@](C(=O)OC)(c3cc4c(cc3OC)N(C)[C@H]3[C@@](O)(C(=O)OC)[C@H](OC(C)=O)[C@]5(CC)C=CCN6CC[C@]43[C@@H]65)C2)C1 | inconclusive: 0.142 µM | 
